Data taken from US8999071B2, “Surfactants derived from oligoglycerols” (Dow Global Technologies LLC, priority 2011, dated 2015).

Key:
[1] = Hard surface cleaning scrubbing test on soiled vinyl tile; settings: 1% surfactant, 3% DOWANOL PnB, 0.5% monoethanolamine in water; scrubbed 5 min; average of three tests (compound 4: two)
Protocol: The efficiency for alkyl oligoglycerols to remove carbon black soil on a hard surface is evaluated by a scrubbing test. A vinyl tile is soiled by spreading 500 uL of a carbon black soil (61.06% naphtha, 27.62% caprylic/capric triglyceride, 8.15% soybean oil, and 3.17% carbon black) uniformly using a foam brush. The tile is air-dried in a fume hood over the weekend. The soiled tile is divided into 12 wells. Surfactant formulations (600 uL 1% surfactant (examples 1-8), 3% DOWANOL™ PnB (a glycol ether containing propylene glycol n-butyl ether), 0.5% monoethanolamine in water are each added into individual wells. The soiled vinyl tile is scrubbed for 5 min with paper towel scrubbers. After scrubbing, cleaning solutions are removed and the wells are rinsed gently with DI water. The vinyl tile is dried overnight. The image of the vinyl tile is recorded with a scanner, and analyzed by imaging software ImageJ to determine the grey scale in each well. Each surfactant formulation is tested three times, except compound 4 which is tested two times. Average grey values are reported.

[2] = Shake foam test in deionized water; settings: 0.1 wt % in deionized water, 10 ml, shaken 10 minutes
Protocol: Shake foam property of compounds 1 and 2 are tested and compared with Triton™ CG-110, a commercial surfactant from The Dow Chemical Company: 10 ml of surfactant solution in deionized water at 0.1 wt % is placed in a 100 ml wide-mouth bottle with cap. All the test solutions in bottles are secured on the plate of an orbital shaker and are shaken at for 10 minutes. After the shaking, the foam volume in each bottle is recorded at different times.

**Q.** For `CCCCCCCCCCOCC(O)COCC(O)CO` (centres unmarked) [Compound 4, 3[3-(decyloxy)-2-hydroxypropoxy]-1,2-propanediol], which “Average Grey Scale Value” [1] is on record?
**A.** 169

**Q.** With `CCCCCC(CCC)COCC(O)COCC(O)CO` (centres unmarked) [Compound 3, 3-(2-hydroxy-3-((2-propylheptyl)oxy)propoxy)propane-1,2-diol] as the molecule, how does the “Average Grey Scale Value” [1] read?
**A.** 100

**Q.** Which “Average Grey Scale Value” [1] does the source give for `CCCCCCCCCCCOCC(O)COCC(O)CO` (centres unmarked) [Compound 6, 3-(2-hydroxy-3-(undecyloxy)propoxy)propane-1,2-diol] here?
**A.** 150

**Q.** For `CC(C)CCCC(C)CCOCC(O)COCC(O)CO` (centres unmarked) [Compound 5, 3-(3((3,7-dimethyloctyl)oxy)-2-hydroxypropoxy)propane-1,2-diol], which “Average Grey Scale Value” [1] is on record?
**A.** 133

**Q.** What does the source list for `CCCCCCCCCOCC(O)COCC(O)CO` (centres unmarked) [Compound 1, 3-[3-(nonyloxy)-2-hydroxypropoxy]-1,2-propanediol]?
**A.** Shaken Foam Volume, 0 min. ([2]; 0 min. after shaking): 41 mL; Shaken Foam Volume, 20 min. ([2]; 20 min. after shaking): 40 mL; Shaken Foam Volume, 60 min. ([2]; 60 min. after shaking): 37 mL; Average Grey Scale Value [1]: 116
